Assay results reported in patent publication US6630318.
These are yes or no findings as the source states them, for the method shown. Some binding calls cover weakened binding; strength is not graded here.

The chains behind the UniProt entries cited, without tags or fusion partners. Where a name states a change or a piece, a line headed by the entry shows the natural chain unless it says otherwise.
UniProt Q03160: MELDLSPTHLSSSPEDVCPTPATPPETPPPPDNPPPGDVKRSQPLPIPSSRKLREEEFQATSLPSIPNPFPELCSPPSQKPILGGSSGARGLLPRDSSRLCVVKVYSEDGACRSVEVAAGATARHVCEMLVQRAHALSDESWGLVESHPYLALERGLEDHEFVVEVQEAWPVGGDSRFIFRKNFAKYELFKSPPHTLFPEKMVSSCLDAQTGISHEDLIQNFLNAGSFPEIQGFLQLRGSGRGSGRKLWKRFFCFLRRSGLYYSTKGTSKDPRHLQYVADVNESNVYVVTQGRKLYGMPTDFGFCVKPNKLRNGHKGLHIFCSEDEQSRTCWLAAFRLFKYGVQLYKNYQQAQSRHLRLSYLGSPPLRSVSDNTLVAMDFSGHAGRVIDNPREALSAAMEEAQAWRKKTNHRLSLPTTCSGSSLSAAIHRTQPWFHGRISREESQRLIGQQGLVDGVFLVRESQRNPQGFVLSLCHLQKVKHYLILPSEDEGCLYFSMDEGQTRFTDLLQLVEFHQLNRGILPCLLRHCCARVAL

Molecular target: EGFR/HER2 chimera (HER2 intracellular domain fused to the EGF-Receptor extracellular domain), expressed in NIH 3T3 cells (UniProt P00533)
Assay: anti-GRB-7 immunoprecipitation from EGF stimulated NIH 3T3 cells with the chimera and GRB-7, anti-PTyr blot (FIG. 7A)

- binding: binds
Substance: GRB-7 transfected into NIH 3T3 cells expressing the EGFR/HER2 chimera (from UniProt Q03160 1-535)
